Source: the supplement of paper PMC7661543
Differences between knockout arms are mostly noise.

Tested on: HCC-38
Test: relative cell number vs DMSO control (72 h) (% of DMSO); higher = less growth inhibition (more cells)
Procedure: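 QMAP-Seq: a pool of 5 breast cancer cell lines (ZR-75-1, SKBR3, HCC-38, MDA-MB-231, BT-20), each carrying 12 doxycycline-inducible Cas9 sgRNA perturbations (11 knockouts plus non-targeting sgNT), was treated with compounds for 72 h at four 10-fold doses (10 nM-10 uM or 1 nM-1 uM range). Barcodes were amplified and sequenced, and cell number was interpolated from 293T spike-in standard curves. The result is expressed as % of the median of DMSO wells. Two biological replicates.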

C[C@]12CC[C@H](O)CC1=CC[C@@H]1[C@@H]2CC[C@]2(C)C(c3cccnc3)=CC[C@@H]12 [Abiraterone]
Details | relative cell number
sgRNA knockout: sgATF3, 1 nM | 112
sgRNA knockout: sgATF3, 10 nM | 111
sgRNA knockout: sgATF3, 100 nM | 103
sgRNA knockout: sgATF3, 1000 nM | 121
sgRNA knockout: sgATF4, 1 nM | 104
sgRNA knockout: sgATF4, 10 nM | 102
sgRNA knockout: sgATF4, 100 nM | 90.5
sgRNA knockout: sgATF4, 1000 nM | 111
sgRNA knockout: sgATF6, 1 nM | 114
sgRNA knockout: sgATF6, 10 nM | 123
sgRNA knockout: sgATF6, 100 nM | 119
sgRNA knockout: sgATF6, 1000 nM | 118
sgRNA knockout: sgATG7, 1 nM | 107
sgRNA knockout: sgATG7, 10 nM | 103
sgRNA knockout: sgATG7, 100 nM | 97.1
sgRNA knockout: sgATG7, 1000 nM | 112
sgRNA knockout: sgERN1, 1 nM | 116
sgRNA knockout: sgERN1, 10 nM | 101
sgRNA knockout: sgERN1, 100 nM | 109
sgRNA knockout: sgERN1, 1000 nM | 118
sgRNA knockout: sgHSF1, 1 nM | 119
sgRNA knockout: sgHSF1, 10 nM | 110
sgRNA knockout: sgHSF1, 100 nM | 121
sgRNA knockout: sgHSF1, 1000 nM | 120
sgRNA knockout: sgHSF2, 1 nM | 114
sgRNA knockout: sgHSF2, 10 nM | 111
sgRNA knockout: sgHSF2, 100 nM | 105
sgRNA knockout: sgHSF2, 1000 nM | 117
sgRNA knockout: sgKEAP1, 1 nM | 121.2
sgRNA knockout: sgKEAP1, 10 nM | 126
sgRNA knockout: sgKEAP1, 100 nM | 126
sgRNA knockout: sgKEAP1, 1000 nM | 112
sgRNA knockout: sgNFE2L2, 1 nM | 97.3
sgRNA knockout: sgNFE2L2, 10 nM | 96
sgRNA knockout: sgNFE2L2, 100 nM | 91.2
sgRNA knockout: sgNFE2L2, 1000 nM | 110
sgRNA knockout: sgSLC35F2, 1 nM | 105
sgRNA knockout: sgSLC35F2, 10 nM | 106
sgRNA knockout: sgSLC35F2, 100 nM | 101
sgRNA knockout: sgSLC35F2, 1000 nM | 101
sgRNA knockout: sgXBP1, 1 nM | 97.4
sgRNA knockout: sgXBP1, 10 nM | 103
sgRNA knockout: sgXBP1, 100 nM | 94.7
sgRNA knockout: sgXBP1, 1000 nM | 119

CC(C)(C#N)c1cc(Cn2cncn2)cc(C(C)(C)C#N)c1 [Anastrozole]
Details | relative cell number
sgRNA knockout: sgATF3, 1 nM | 107
sgRNA knockout: sgATF3, 10 nM | 110
sgRNA knockout: sgATF3, 100 nM | 99.9
sgRNA knockout: sgATF3, 1000 nM | 105.95
sgRNA knockout: sgATF4, 1 nM | 102
sgRNA knockout: sgATF4, 10 nM | 114
sgRNA knockout: sgATF4, 100 nM | 102
sgRNA knockout: sgATF4, 1000 nM | 111.9
sgRNA knockout: sgATF6, 1 nM | 109
sgRNA knockout: sgATF6, 10 nM | 127
sgRNA knockout: sgATF6, 100 nM | 118
sgRNA knockout: sgATF6, 1000 nM | 109
sgRNA knockout: sgATG7, 1 nM | 107
sgRNA knockout: sgATG7, 10 nM | 108
sgRNA knockout: sgATG7, 100 nM | 102.6
sgRNA knockout: sgATG7, 1000 nM | 113
sgRNA knockout: sgERN1, 1 nM | 103
sgRNA knockout: sgERN1, 10 nM | 110
sgRNA knockout: sgERN1, 100 nM | 104
sgRNA knockout: sgERN1, 1000 nM | 104
sgRNA knockout: sgHSF1, 1 nM | 106
sgRNA knockout: sgHSF1, 10 nM | 141
sgRNA knockout: sgHSF1, 100 nM | 114
sgRNA knockout: sgHSF1, 1000 nM | 106.3
sgRNA knockout: sgHSF2, 1 nM | 116
sgRNA knockout: sgHSF2, 10 nM | 129
sgRNA knockout: sgHSF2, 100 nM | 110
sgRNA knockout: sgHSF2, 1000 nM | 104
sgRNA knockout: sgKEAP1, 1 nM | 117
sgRNA knockout: sgKEAP1, 10 nM | 127
sgRNA knockout: sgKEAP1, 100 nM | 114
sgRNA knockout: sgKEAP1, 1000 nM | 99.3
sgRNA knockout: sgNFE2L2, 1 nM | 97.4
sgRNA knockout: sgNFE2L2, 10 nM | 112
sgRNA knockout: sgNFE2L2, 100 nM | 100
sgRNA knockout: sgNFE2L2, 1000 nM | 115
sgRNA knockout: sgSLC35F2, 1 nM | 102
sgRNA knockout: sgSLC35F2, 10 nM | 111
sgRNA knockout: sgSLC35F2, 100 nM | 98.6
sgRNA knockout: sgSLC35F2, 1000 nM | 98.3
sgRNA knockout: sgXBP1, 1 nM | 101
sgRNA knockout: sgXBP1, 10 nM | 118
sgRNA knockout: sgXBP1, 100 nM | 90.8
sgRNA knockout: sgXBP1, 1000 nM | 113

C[C@H]1CCC/C=C/[C@@H]2C[C@H](O)C[C@H]2[C@H](O)/C=C/C(=O)O1 [BrefeldinA]
Details | relative cell number
sgRNA knockout: sgATF3, 10 nM | 91.4
sgRNA knockout: sgATF3, 100 nM | 56.1
sgRNA knockout: sgATF3, 1000 nM | 38.8
sgRNA knockout: sgATF3, 10000 nM | 25.1
sgRNA knockout: sgATF4, 10 nM | 95.6
sgRNA knockout: sgATF4, 100 nM | 46.8
sgRNA knockout: sgATF4, 1000 nM | 37.4
sgRNA knockout: sgATF4, 10000 nM | 24.1
sgRNA knockout: sgATF6, 10 nM | 89.8
sgRNA knockout: sgATF6, 100 nM | 49.4
sgRNA knockout: sgATF6, 1000 nM | 44.1
sgRNA knockout: sgATF6, 10000 nM | 28.5
sgRNA knockout: sgATG7, 10 nM | 88.9
sgRNA knockout: sgATG7, 100 nM | 52.3
sgRNA knockout: sgATG7, 1000 nM | 35.1
sgRNA knockout: sgATG7, 10000 nM | 25.7
sgRNA knockout: sgERN1, 10 nM | 97.2
sgRNA knockout: sgERN1, 100 nM | 61.37
sgRNA knockout: sgERN1, 1000 nM | 37.5
sgRNA knockout: sgERN1, 10000 nM | 22.64
sgRNA knockout: sgHSF1, 10 nM | 97.3
sgRNA knockout: sgHSF1, 100 nM | 44.4
sgRNA knockout: sgHSF1, 1000 nM | 32.9
sgRNA knockout: sgHSF1, 10000 nM | 22.7
sgRNA knockout: sgHSF2, 10 nM | 92
sgRNA knockout: sgHSF2, 100 nM | 56.8
sgRNA knockout: sgHSF2, 1000 nM | 39.6
sgRNA knockout: sgHSF2, 10000 nM | 23.3
sgRNA knockout: sgKEAP1, 10 nM | 87.9
sgRNA knockout: sgKEAP1, 100 nM | 50.3
sgRNA knockout: sgKEAP1, 1000 nM | 36.7
sgRNA knockout: sgKEAP1, 10000 nM | 28.1
sgRNA knockout: sgNFE2L2, 10 nM | 88.1
sgRNA knockout: sgNFE2L2, 100 nM | 51.6
sgRNA knockout: sgNFE2L2, 1000 nM | 36.6
sgRNA knockout: sgNFE2L2, 10000 nM | 19.4
sgRNA knockout: sgSLC35F2, 10 nM | 93.5
sgRNA knockout: sgSLC35F2, 100 nM | 57.9
sgRNA knockout: sgSLC35F2, 1000 nM | 37.7
sgRNA knockout: sgSLC35F2, 10000 nM | 23
sgRNA knockout: sgXBP1, 10 nM | 96.7
sgRNA knockout: sgXBP1, 100 nM | 54.4
sgRNA knockout: sgXBP1, 1000 nM | 37.8
sgRNA knockout: sgXBP1, 10000 nM | 22.8
